Measured values published in PubChem BioAssay AID2685 (National Center for Advancing Translational Sciences (NCATS), 2010).
This is one part of the list. Further columns of the screen follow, without active or inactive calls. Most of these compounds were active or inconclusive in the main read-out, so they are no random draw. Potencies come from curve fits of mixed quality, noted in brackets.

Experiment: qHTS Assay for Lipid Storage Modulators in Drosophila S3 Cells;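 as to cell number change: cells counted by Cell Tracker Red CMTPX staining in the red channel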
Conditions: BODIPY lipid droplet fluorescence, 18-24 h; for cell number change: measured here: cell count max response, cells fed with added oleic acid
Method in brief: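 Laser-scanning cytometry quantifies lipid droplet accumulation (500–530 nm total intensity; droplet/cell object ratio) in oleic acid-fed (400 uM added) Drosophila S3 cells treated with a concentration series. 20 uM Triacsin C defined 100% inhibition.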

[1] = measured here: lipid fluorescence (Fed channel) AC50, cells fed with added oleic acid
[2] = measured here: cell number channel AC50, cells fed with added oleic acid

SMILES | cell number change [%] | AC50 [1] | AC50 [2]
Clc1ccc(Cc2noc(CN3CCN(c4ccccc4)CC3)n2)c(Cl)c1 | 3.79 | 0.146 µM [falling, single point] | –
CC(=O)c1ccccc1C(=O)N1CCC(n2nccc2NC(=O)C2CC2)CC1 | -0.578 | 0.146 µM [rising, full curve, poor fit] | –
COc1ccc(CN(C)C(=O)C(Cc2ccccc2)NC(=O)c2ccccc2)cc1F (configuration not stated) | – | 0.82 µM [rising, partial curve] | 2.91 µM [rising, single point]
Cc1ccccc1NC(=O)CSc1nnc(NC(=O)c2ccco2)s1 | 8.37 | 2.06 µM [rising, single point] | –
C/C(C=O)=C/c1ccccc1 | -19.5 | 0.731 µM [falling, partial curve, poor fit] | 0.82 µM [falling, single point]
CN(C)c1cccc(/C=C(\C#N)c2ccccc2)c1 | 21 | 0.58 µM [rising, partial curve] | –
COC(=O)Cn1ccc(N(C)C)c(C#N)c1=O | – | 0.58 µM [rising, single point] | –
COc1cc(NS(=O)(=O)c2ccc(C)cc2C)cc(OC)c1OC | 5.94 | 1.64 µM [falling, partial curve] | –
CN1/C(=c2/s/c(=C3/C(=O)N(c4ccccc4)NC3=Nc3ccccc3)n(C)c2=O)C(C)(C)c2ccccc21 | -148 | – | 20.6 µM [falling, partial curve]
COc1ccccc1CN(Cc1cc2cc(C)cc(C)c2[nH]c1=O)Cc1nnnn1CC1CCCO1 (configuration not stated) | 33.7 | – | –
CCOC(=O)C1CCN(C(=O)CN(c2ccc(OC)cc2)S(=O)(=O)c2c(C)noc2C)CC1 | 31.5 | 6.51 µM [rising, single point] | 6.51 µM [rising, single point]
CCOC(=O)CSc1nc2cccnc2n1-c1ccc(F)cc1 | – | 6.51 µM [rising, single point] | –
COc1ccc(CNC(=O)COC(=O)c2cnccn2)cc1 | -42.5 | – | 0.517 µM [falling, full curve]
O=C(CC(Nc1ccc(F)cc1)c1ccccc1)c1ccccc1 (configuration not stated) | -18.4 | 29.1 µM [falling, single point] | –
CCOc1cc(N2CCOCC2)c(OCC)cc1NC(=O)c1ccc2ncsc2c1 | -49.7 | 29.1 µM [falling, single point] | 25.9 µM [falling, single point]
O=C(NCCN1CCOCC1)c1cccnc1SCc1ccccc1Cl | 14.7 | 0.116 µM [rising, full curve, poor fit] | –
CCC(C)NS(=O)(=O)c1ccc(NC(=O)Cc2ccc(OC)cc2)cc1 (configuration not stated) | -28.1 | 23.1 µM [falling, partial curve, poor fit] | –
Cc1ccc(NS(=O)(=O)c2ccc3c(c2)NC(=O)C(C)C(=O)N3)c(Br)c1 (configuration not stated) | 1.15 | 6.51 µM [rising, single point] | –
c1ccc(CC(Nc2ccccn2)c2ccccc2)cc1 (configuration not stated) | 18 | – | –

SMILES | cell number change [%] | AC50 [1] | AC50 [2]
COc1ccc(-c2nc3cccc(C)n3c2NCc2ccco2)cc1OC | – | 6.51 µM [rising, single point] | 6.51 µM [rising, single point]
O=C(CSc1cccc[n+]1[O-])Nc1ccc2c(c1)OCO2 | 8.82 | 0.00651 µM [rising, full curve] | –
O=S(=O)(Nc1ncccn1)c1ccc(-n2cnnn2)cc1 | -0.937 | – | 1.16 µM [falling, single point]
Cc1ccc(OCCCC(=O)Nc2cc(Cl)ccc2-n2cncn2)cc1 | – | 0.651 µM [rising, partial curve, poor fit] | 0.206 µM [rising, partial curve]
Cc1ccc(C(=O)c2c3ccccc3[n+]([O-])n2[C@@H](C)C(N)=O)cc1 | 26.7 | 2.31 µM [rising, partial curve, poor fit] | 0.0326 µM [rising, full curve, poor fit]
Cc1ccc2nc(N(CCN(C)C)C(=O)c3ccc4ccccc4c3)sc2c1 | – | 6.51 µM [rising, single point] | –
CC(=O)N(C)c1ccc(NS(=O)(=O)Cc2ccccc2)cc1 | 35.5 | – | 32.6 µM [rising, single point]
CCCCc1ccc(NC(=O)CSC2=C(C#N)C(c3ccco3)C3=C(CCCC3=O)N2)cc1 (configuration not stated) | -27.6 | 2.31 µM [falling, full curve] | –
Nc1nc(O)c(CC(=O)O)s1 | – | 0.0291 µM [rising, full curve, poor fit] | –
O=C(Cc1ccccc1F)c1ccc(O)cc1O | -1.31 | 0.146 µM [falling, single point] | –
Cc1ccnc(NC(=O)c2ccc(NC(=O)c3ccco3)cc2)c1 | -15.4 | 23.1 µM [falling, single point] | –
Cc1ccn2cc(-c3cccc([N+](=O)[O-])c3)nc2c1 | 15.1 | – | –
COc1cc(/C=N/NC(=O)Nc2ccccc2)ccc1OC(C)=O | 19.6 | 29.1 µM [falling, single point] | –
CCCCOc1ccc(-c2nnn(CC(=O)Nc3ncc(CC(=O)OCC)s3)n2)cc1 | 129 | – | 29.1 µM [rising, single point]
CCN1CCN(C(c2cc3cc4c(cc3[nH]c2=O)OCO4)c2nnnn2C(C)(C)CC)CC1 (configuration not stated) | 30.8 | 2.59 µM [rising, single point] | 7.31 µM [rising, partial curve, poor fit]
CN(CCO)c1nc(NCc2ccccc2)c2cnn(C)c2n1 | 5.5 | 0.00461 µM [rising, full curve, poor fit] | –
Cc1cc(C)c(C)c(S(=O)(=O)N2CCC(C(=O)Nc3ccncc3)CC2)c1C | -9.06 | 0.82 µM [falling, full curve] | –
O=C(Nc1ccc(F)cc1)N1CCN2C(=O)c3ccccc3C12c1ccccc1 (configuration not stated) | 83.1 | 1.3 µM [rising, partial curve] | 13 µM [rising, partial curve]
COC(=O)c1cc2nc(-c3ccc(OC)c(OC)c3)cc(C(F)(F)F)n2n1 | -29.5 | – | 0.00517 µM [falling, full curve, poor fit]

Exported as tab-separated lines: part of the list above.
SMILES	cell number change [%]	AC50 [1]	AC50 [2]
O=C(CSc1cccc[n+]1[O-])Nc1ccc2c(c1)OCO2	8.82	0.00651 µM [rising, full curve]	–
Cc1ccnc(NC(=O)c2ccc(NC(=O)c3ccco3)cc2)c1	-15.4	23.1 µM [falling, single point]	–

The list continues.

SMILES | cell number change [%] | AC50 [1] | AC50 [2]
O=C(O)c1nn2cc(CCO)cnc2c1Cl | -37.6 | 29.1 µM [falling, single point] | 29.1 µM [falling, single point]
Cc1ccc(-c2nc(CS(=O)CC(=O)NC3CCCC3)c(C)o2)cc1 (configuration not stated) | -34.1 | 18.4 µM [falling, single point] | 18.4 µM [falling, single point]
CC(=O)c1c(C)n(-c2ccc(Br)cc2)c2ccc(O)cc12 | -8.47 | – | –
O=C(COC(=O)CNC(=O)c1sc2ccccc2c1Cl)Nc1c(Cl)cc(Cl)cc1Cl | – | 5.8 µM [rising, partial curve, poor fit] | 6.51 µM [rising, partial curve, poor fit]
COc1ccc(-c2cc(-c3ccccc3O)[nH]n2)cc1 | -42.3 | 13 µM [falling, partial curve] | 14.6 µM [falling, partial curve]
COc1cccc(OCCNCc2ccccc2)c1 | 11.4 | 29.1 µM [rising, single point] | –
O=C(/C=C/c1ccccc1)Nn1cnnc1 | -2.12 | 23.1 µM [falling, partial curve] | –
COc1ccc(C(=O)Nc2scc(-c3ccc(Cl)cc3Cl)c2C(N)=O)cc1 | 38 | – | 14.6 µM [rising, single point]
O=C(Cn1nnc(-c2ccc(Cl)cc2)n1)NCC1CCCCC1 | -15 | – | 2.31 µM [falling, single point]
COc1ccc(-c2cc(=O)[nH][nH]2)cc1 | 41.7 | 29.1 µM [rising, single point] | 0.092 µM [rising, full curve, poor fit]
CC1C(=O)C(C)(C)C(=O)OC1c1ccc([N+](=O)[O-])cc1 (configuration not stated) | 22.5 | – | 0.731 µM [rising, full curve, poor fit]
CCN(CC)CCNC(=O)c1cc(Nc2ccc(OC)c(OC)c2)nc2ccccc12 | 23.6 | 29.1 µM [falling, single point] | –
CC(C)(C)c1nnc(NC(=O)C2CC(=O)N(CCc3ccc(F)cc3)C2)s1 (configuration not stated) | 18.1 | 29.1 µM [rising, single point] | –
Cc1ccc(N2C(=O)C(Cl)=C(Nc3c(C)n(C)n(-c4ccccc4)c3=O)C2=O)cc1 | 35.2 | 20.6 µM [rising, partial curve] | 13 µM [rising, single point]
CC(OC(=O)CN1C(=O)C2CCCCC2C1=O)C(=O)Nc1ncc(Cl)cc1Cl (configuration not stated) | -18.1 | 0.00517 µM [rising, full curve, poor fit] | 0.82 µM [rising, full curve, poor fit]
COc1ccc(F)cc1CN1CCN(C(=O)CCC(=O)Nc2nnc(C(C)C)s2)CC1 | -2.92 | 0.092 µM [falling, full curve, poor fit] | –
O=C(COC(=O)c1cncc(Br)c1)NCc1ccc(F)cc1 | – | – | 0.116 µM [falling, full curve, poor fit]
CCOC(=O)C1=C(C)N(C)C(=S)NC1c1ccc(Cl)cc1Cl (configuration not stated) | -11.9 | 6.51 µM [rising, partial curve, poor fit] | –
CCN(CC(=O)Nc1ccc(NC(C)=O)cc1)C(=O)C1CCCC1 | 9.49 | 0.517 µM [rising, partial curve, poor fit] | –
